How the values were obtained:
Mycobacterium terrae = experiment: AOAC tuberculocidal test, kill time; assay type: cell-based; settings: test 1.3; 0.25% benzethonium chloride, 0.25% Triton X-100, 5% isopropanol; 62° C. + ultrasound 20 min/hr
From the text: Standards have been established for “sterilization”, and for “low”, “intermediate” and “high” level disinfection. These standards are based on the known or possible risk of contamination of a particular medical device by a particular micro-organism, the pathogenic nature of the organism and other principles in infection control. […] The test panels and criteria are different for “low”, “intermediate” or “high-level disinfection”. These terms are herein used in accordance with current Food and Drug Administration (“FDA”) criteria for levels of disinfection which are detailed in Premarket Notification [510(k)] Submissions for Liquid Chemical Sterilants and High Level Disinfectants FDA 1997: “A germicide that inactivates all microbial pathogens except large number of bacterial endospores when used according to labelling”. In brief, the FDA regulatory requirement for high level disinfectants includes as the most challenging test a 100% kill of Mycobacterium tuberculosis var. bovis (or a specific strain of a suitable surrogate, such as Mycobacterium terrae) in 400 p.p.m. hard water in the presence of 2% horse serum in a quantitative tuberculocidal test.
In the following tables unless otherwise specified references to “kill time” mean the time required to achieve complete kill as defined in the relevant AOAC test (more particularly identified in annexure 1). […]

B. subtilis spores = experiment: AOAC sporicidal test, kill time; assay type: cell-based; settings: test 1.3; 0.25% benzethonium chloride, 0.25% Triton X-100, 5% isopropanol; 62° C. + ultrasound 20 min/hr

CC(C)(C)CC(C)(C)c1ccc(OCCOCC[N+](C)(C)Cc2ccccc2)cc1 [benzethonium chloride, reference compound]
Kill Time Mycobacterium terrae (Mycobacterium terrae): >60 min
Kill time B. subtilis (B. subtilis spores): >24 h

— patent US20080260716A1, “Method and Composition for High Level Disinfection Employing Quaternary Ammonium Compounds” (priority 2004, published 2008)
